The target of assay [1] is T1, mouse NCoR-derived DAD domain (mNCoR 389–498) (mouse) (UniProt Q60974).
T1 sequence: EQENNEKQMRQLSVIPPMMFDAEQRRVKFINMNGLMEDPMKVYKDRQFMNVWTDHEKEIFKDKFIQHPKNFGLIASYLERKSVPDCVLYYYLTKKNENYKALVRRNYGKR
Description: pull-down; His-tagged DAD as bait, HDAC3 proteins as prey, in the absence of IP4; HDAC3(1–428) mixed with its caspase 7-cleaved product or with recombinant HDAC3(1–391); both purified.

By UniProt entry, the sequences of proteins in these tests, tags left out. Residues count along the entry.
UniProt O15379, residues 1-391: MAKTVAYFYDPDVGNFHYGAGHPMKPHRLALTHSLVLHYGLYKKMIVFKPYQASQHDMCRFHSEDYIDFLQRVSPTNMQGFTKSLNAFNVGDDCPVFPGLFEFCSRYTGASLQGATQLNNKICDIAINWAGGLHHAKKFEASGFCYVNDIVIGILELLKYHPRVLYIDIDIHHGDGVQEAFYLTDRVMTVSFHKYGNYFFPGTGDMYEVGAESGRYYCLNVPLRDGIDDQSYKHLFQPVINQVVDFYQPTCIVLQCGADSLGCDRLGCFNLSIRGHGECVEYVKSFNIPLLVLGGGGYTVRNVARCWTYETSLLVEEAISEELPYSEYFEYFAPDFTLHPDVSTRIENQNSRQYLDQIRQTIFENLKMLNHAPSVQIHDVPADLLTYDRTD

Assay [2] addresses T1, mouse NCoR-derived DAD domain (mNCoR 389–498) (mouse). Description: pull-down; His-tagged DAD as bait, HDAC3 proteins as prey, in the presence of IP4; HDAC3(1–428) mixed with its caspase 7-cleaved product or with recombinant HDAC3(1–391); both purified.

No constants are given. Whether binding was seen depends on the method and setting. Some binding calls cover weakened binding; strength is not graded here.

As to “recombinant HDAC3(1–391) (from UniProt O15379 1-391) (domain or fragment)”, the binding entry in assay [1] and in assay [2] was “binds weakly” in each case.

These data come from article PMC8502911.
